Source: the supplement of paper PMC12823440, “Inhibitors supercharge kinase turnover through native proteolytic circuits” (Nature, 2025)
This is one part of the list. Hit calls seldom repeat between salt and free forms of one compound.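 In K562 cells expressing nanoluciferase-fused kinases, luminescence was recorded at 4 h intervals between 2 and 18 h, normalized as percent of control with DMSO at 100% and a positive control at 0%. A significant (2 sigma) signal drop marks a time point as decreased. The authors' rule for a hit is not shown and takes in more than the number of time points.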

The compounds below were run against RAF1_S257L (clone: RAF1_mut) (UniProt P04049) (assay: kinase-Nluc reporter destabilization hit call (1 = scored as downregulated) (binary); higher = compound decreases kinase abundance). Details: K562; 2-18 h.
In the case of `COc1ccc2nc3ccc(OC)cc3c(SCCCN)c2c1` (10 µM), the “kinase-Nluc reporter destabilization hit call” value is reported as active: 1. For `NC(=O)c1sc2c([N+](=O)[O-])cc(C(F)(F)F)cc2[n+]1[O-]` [Cyclapolin 9] (10 µM), the “kinase-Nluc reporter destabilization hit call” value was inactive: 0. `CS(=O)(=O)c1cccc(CNc2nc(Nc3ccc4c(c3)CCC(=O)N4)ncc2C(F)(F)F)c1` (10 µM) was tested, and the “kinase-Nluc reporter destabilization hit call” value was inactive: 0. With `CS(=O)(=O)c1ccc([C@@H](CC2CCCC2)C(=O)Nc2nccs2)cc1` (10 µM) the “kinase-Nluc reporter destabilization hit call” value was inactive: 0. `C=CC(=O)Nc1cc(Nc2nccc(-c3cn(C)c4ccccc34)n2)c(OCC(F)(F)F)nc1N(C)CCNC` [AST5902  (trimesylate)] (2.5 µM) was tested, and the “kinase-Nluc reporter destabilization hit call” value was inactive: 0. For `CO/N=C1/C(c2c(O)[nH]c3cc(Cl)c(Cl)cc23)=Nc2ccccc21` (10 µM), the “kinase-Nluc reporter destabilization hit call” value was inactive: 0. In the case of `CC(ONC(=O)c1cc(C(F)(F)F)cc(C(F)(F)F)c1)C(=O)Nc1ccc(Cl)cc1` (centres undefined) (2.5 µM), the “kinase-Nluc reporter destabilization hit call” value is reported as inactive: 0. `Cc1ccc(C2CC(=O)NC(SCC(=O)Nc3nccs3)=C2C#N)cc1` (centres undefined) [Necrostatin-34] (10 µM) was tested, and the “kinase-Nluc reporter destabilization hit call” value was inactive: 0. With `O=CN1CCN(c2ccc(C=C3C(=O)Nc4ccccc43)cc2)CC1` (10 µM) the “kinase-Nluc reporter destabilization hit call” value was inactive: 0. For `CCCS(=O)(=O)N[C@H]1C[C@@H](N(C)c2ncnc3[nH]ccc23)C1` [Abrocitinib] (10 µM), the “kinase-Nluc reporter destabilization hit call” value was inactive: 0. `NC(=O)c1cnc(N[C@@H]2CCCC[C@@H]2N)nc1Nc1cccc(-n2nccn2)c1` (2.5 µM) was tested, and the “kinase-Nluc reporter destabilization hit call” value was inactive: 0. For `CS[C@@]1(C(=O)Nc2ccc3[nH]nc(-c4ccc(OC(C)C)nc4)c3c2)CCN(CC(=O)N2CC=C(c3ccc(-c4ncn(C)n4)cc3)CC2)C1` (2.5 µM), the “kinase-Nluc reporter destabilization hit call” value was inactive: 0. With `Fc1ccc(Cl)cc1-c1nc(Nc2ccncc2)c2nccnc2n1` (10 µM) the “kinase-Nluc reporter destabilization hit call” value was inactive: 0. For `O=C(Nc1ccccc1C(=O)NC1CCCCNC1=O)c1cc2ccccc2s1` (centres undefined) (10 µM), the “kinase-Nluc reporter destabilization hit call” value was inactive: 0. `O=C(O)c1c[nH]c2cc(Cl)c(-c3ccc(C4(O)CCC4)cc3)cc12` (10 µM) was tested, and the “kinase-Nluc reporter destabilization hit call” value was inactive: 0. In the case of `CN(C[C@@H]1COCCO1)S(=O)(=O)Nc1ccc2ccc3ncc(-c4cnn(C)c4)cc3c(=O)c2c1` (2.5 µM), the “kinase-Nluc reporter destabilization hit call” value is reported as inactive: 0. For `NC(=O)c1ccccc1Nc1ccnc(Nc2cccc(O)c2)n1` (10 µM), the “kinase-Nluc reporter destabilization hit call” value was active: 1. In the case of `Cc1ccc2c(NS(=O)(=O)c3ccccc3Cl)cccc2c1Oc1ncccc1-c1ccnc(N[C@H]2CCCNC2)n1` (2.5 µM), the “kinase-Nluc reporter destabilization hit call” value is reported as inactive: 0. With `O=C(Nc1ccc(Cl)cc1)C1CN(C(=O)c2cccc(-c3ccco3)c2)CC(F)(F)C1` (centres undefined) (2.5 µM) the “kinase-Nluc reporter destabilization hit call” value was inactive: 0. For `COc1ccc(CN2CCC(c3ccc4nc(C(=O)N5CCN(Cc6ccc(C(F)(F)F)cc6)CC5)[nH]c4c3)CC2)cn1` (2.5 µM), the “kinase-Nluc reporter destabilization hit call” value was inactive: 0. In the case of `CC(C)=CCC[C@](C)(O[C@@H]1O[C@H](CO[C@@H]2O[C@H](CO)[C@@H](O)[C@H](O)[C@H]2O)[C@@H](O)[C@H](O)[C@H]1O)[C@H]1CC[C@]2(C)[C@@H]1[C@H](O)C[C@@H]1[C@@]3(C)CC[C@H](O[C@@H]4O[C@H](CO)[C@@H](O)[C@H](O)[C@H]4O[C@@H]4O[C@H](CO)[C@@H](O)[C@H](O)[C@H]4O)C(C)(C)[C@@H]3CC[C@]12C` [Ginsenoside Rb1] (10 µM), the “kinase-Nluc reporter destabilization hit call” value is reported as inactive: 0. `COc1cc2ncnc(Nc3cc(Br)c(O)c(Br)c3)c2cc1OC` (2.5 µM) was tested, and the “kinase-Nluc reporter destabilization hit call” value was inactive: 0. For `CO[C@]1(C(=O)N[C@@H](C)c2ccc(-n3cc(F)cn3)nc2)CC[C@H](c2nc(C)cc(Nc3cc(C)[nH]n3)n2)CC1` [Pralsetinib] (10 µM), the “kinase-Nluc reporter destabilization hit call” value was inactive: 0. `CCc1cc(Nc2nccc(-c3c(-c4ccc(OC)c(C(=O)Nc5c(F)cccc5F)c4)nc4ccccn34)n2)c(OC)cc1N1CCC(N2CCN(S(C)(=O)=O)CC2)CC1` (2.5 µM) was tested, and the “kinase-Nluc reporter destabilization hit call” value was inactive: 0. For `Cc1nc2c(NCc3cccc(S(C)(=O)=O)c3)nccn2c1-c1ccc(O)c(F)c1` (10 µM), the “kinase-Nluc reporter destabilization hit call” value was inactive: 0. For `CNC(=O)CN1CCC(Oc2cc3c(Nc4cccc(Cl)c4F)ncnc3cc2OC)CC1` [Sapitinib] (10 µM), the “kinase-Nluc reporter destabilization hit call” value was inactive: 0. For `COc1ccc(Br)c(C=O)c1O` [6-Bromo-2-hydroxy-3-methoxybenzaldehyde] (10 µM), the “kinase-Nluc reporter destabilization hit call” value was inactive: 0. `N#C/C(=C/c1ccc(O)c(O)c1)C(=O)N1CCc2ccccc21` [Tyrphostin AG 528] (10 µM) was tested, and the “kinase-Nluc reporter destabilization hit call” value was inactive: 0. For `C[C@H](Nc1cc2c(-c3ccc4c(c3)OCO4)noc2cn1)c1ccccc1` (10 µM), the “kinase-Nluc reporter destabilization hit call” value was inactive: 0.
